Experimental data: PubChem BioAssay AID504795 (Drosophila RNAi Screening Center, 2011)

Assay: 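Fly genes whose loss alters neurite growth or neural cell form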 (primary screen)
Cells: primary Drosophila neurons and glia
Knock-down reagent: long dsRNA against Drosophila genes, 250 ng dsRNA per well
Time to read-out: one week
Measured: 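Descriptive morphology terms assigned by visual inspection of live automated images of GFP-marked cells, taken one week after adding 250 ng dsRNA per well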
Only reagents picked out of a larger screen are listed. 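Every listed dsRNA shows some phenotype; how reagents were selected for listing is not stated.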 Further read-outs or replicates are left out here.

phenotype seen, replicate 1, by target and reagent
app: DRSC10246 axon bundles split apart
CG34266: DRSC08323 axon bundles split apart
fne: DRSC20332 sheet-like cell extensions
faf: DRSC16942 abnormal cell clusters
SmD2: DRSC12536 beaded; swollen axons
CG14185: DRSC10184 reduced axon outgrowth
CG42843 (retired record): DRSC01118 abnormal cell clusters
fd102C: DRSC17203 axon bundles split apart
mat: DRSC08376 axon bundles split apart
dpr12: DRSC04892 axon bundles split apart
CG1690: DRSC06636 abnormal cell clusters
Ir52b: DRSC06263 fewer cells
Tektin-C: DRSC09741 too many neurite branches
Cyp6a15Psi: DRSC07377 abnormal cell clusters
MED11: DRSC10739 axon bundles split apart
prc: DRSC11385 sheet-like cell extensions
HP1e: DRSC16379 axon bundles split apart
Tep5Psi: DRSC02183 too many neurite branches; DRSC02184 too many neurite branches
CG42699: DRSC18076 cell fragments present
SMC6: DRSC15829 abnormal cell clusters
CG9098: DRSC03136 weaker green signal
wnd: DRSC21373 too many neurite branches
CG30470 (retired record): DRSC05553 too many neurite branches
CG14535: DRSC02393 too many neurite branches
CG7706: DRSC16295 beaded; swollen axons
CG11159: DRSC06050 abnormal cell clusters
Six4: DRSC11881 fewer cells
TfIIA-S-2: DRSC17791 axon bundles split apart
Kank: DRSC05513 axon bundles split apart
crok: DRSC02593 abnormal cell clusters
CG12877: DRSC14565 reduced axon outgrowth
CG7409: DRSC10842 sheet-like cell extensions
nrm: DRSC11897 too many neurite branches
CG4998: DRSC10466 reduced axon outgrowth
RpS11: DRSC07289 beaded; swollen axons; DRSC22700 axon bundles split apart
TpnC73F: DRSC11307 axon bundles split apart
brk: DRSC18745 abnormal cell clusters
BaraB: DRSC06420 reduced axon outgrowth
EloA: DRSC16109 cell fragments present
Vrp1: DRSC04148 axon bundles split apart
CG4325: DRSC18516 too many neurite branches
niki: DRSC14285 cell fragments present
dpr9: DRSC14534 sheet-like cell extensions
CG12209: DRSC06119 too many neurite branches
Rdh: DRSC08063 sheet-like cell extensions
Whamy: DRSC14574 too many neurite branches

Entries above whose gene name begins with S or s (3):
phenotype seen, replicate 1, by target and reagent
SmD2: DRSC12536 beaded; swollen axons
SMC6: DRSC15829 abnormal cell clusters
Six4: DRSC11881 fewer cells

More records follow.
phenotype seen, replicate 1, by target and reagent
Lk: DRSC10022 sheet-like cell extensions
CG14673 (retired record): DRSC12259 reduced axon outgrowth
Syt14: DRSC12331 beaded; swollen axons
RpL13A: DRSC12265 abnormal cell clusters
RpLP2: DRSC07539 sheet-like cell extensions
hiw: DRSC20339 reduced axon outgrowth
RpL19: DRSC04649 too many neurite branches
CG33110: DRSC14694 too many neurite branches
Crz: DRSC16615 abnormal cell clusters
CG8152: DRSC07083 fewer cells
stumps: DRSC15332 axon bundles split apart
Tsp42Eo: DRSC06184 too many neurite branches
toe: DRSC09783 cell fragments present
Caf1-55: DRSC16596 sheet-like cell extensions
Cdk5alpha: DRSC03290 abnormal cell clusters
COX7AL: DRSC15313 reduced axon outgrowth
CG14115: DRSC10118 sheet-like cell extensions
bard: DRSC14796 axon bundles split apart
ACXC: DRSC00846 too many neurite branches
elB: DRSC03527 cell fragments present
Med: DRSC16737 abnormal cell clusters
CG4860: DRSC15664 reduced axon outgrowth; DRSC21755 axon bundles split apart
cv-c: DRSC14973 axon bundles split apart
CG33232 (retired record): DRSC08495 reduced axon outgrowth
Tpst: DRSC19724 too many neurite branches
